# Measurements reported in the supplement of paper PMC8728848.
# This is one part of the list.
# Experiments:
# Assay in all cases: glycan array binding signal (z-score within array); higher = stronger binding
# Conditions in all cases: glycan notation: IUPAC condensed, linker removed
# [1] = target: Neu5Ac(a2-6)GlcNAc(b1-4)GlcNAc(b1-4)GlcNAc
# Outline: (§1)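 Glycan array data came from 3228 arrays in the Consortium for Functional Glycomics database, and only arrays with an available protein sequence were kept. Glycan names were put into IUPAC-condensed notation, and columns mapping to the same glycan were averaged. The binding signal is a within-array Z-score, averaged across arrays of one protein sequence run at different concentrations or buffers and across linkers. A negative Z-score can be read as non-binding.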
# [2] = target: Neu5Ac(a2-8)Neu5Ac
# Outline: as §1
# [3] = target: Neu5Ac(a2-8)Neu5Ac(a2-3)Gal(b1-3)GalNAc(b1-4)[Neu5Ac(a2-3)]Gal(b1-4)Glc
# Outline: as §1
# [4] = target: Neu5Ac(a2-8)Neu5Ac(a2-3)Gal(b1-3)GalNAc(b1-4)[Neu5Ac(a2-8)Neu5Ac(a2-3)]Gal(b1-4)Glc
# Outline: as §1
# [5] = target: Neu5Ac(a2-8)Neu5Ac(a2-3)Gal(b1-4)Glc
# Outline: as §1
# [6] = target: Neu5Ac(a2-8)Neu5Ac(a2-3)Gal(b1-4)GlcNAc
# Outline: as §1
# [7] = target: Neu5Ac(a2-8)Neu5Ac(a2-3)[Gal(b1-3)GalNAc(b1-4)]Gal(b1-4)Glc
# Outline: as §1
# [8] = target: Neu5Ac(a2-8)Neu5Ac(a2-3)[GalNAc(b1-4)]Gal(b1-4)Glc
# Outline: as §1
# [9] = target: Neu5Ac(a2-8)Neu5Ac(a2-8)Neu5Ac
# Outline: as §1
# [10] = target: Neu5Ac(a2-8)Neu5Ac(a2-8)Neu5Ac(a2-3)Gal(b1-4)Glc
# Outline: as §1
# [11] = target: Neu5Ac(a2-8)Neu5Ac(a2-8)Neu5Ac(a2-3)[Gal(b1-3)GalNAc(b1-4)]Gal(b1-4)Glc
# Outline: as §1
# [12] = target: Neu5Ac(a2-8)Neu5Ac(a2-8)Neu5Ac(a2-3)[GalNAc(b1-4)]Gal(b1-4)Glc
# Outline: as §1
# [13] = target: Neu5Ac(a2-8)Neu5Ac(a2-8)Neu5Ac(a2-8)Neu5Ac(a2-3)[GalNAc(b1-4)]Gal(b1-4)Glc
# Outline: as §1
# [14] = target: Neu5Ac(a2-8)Neu5Gc(a2-3)Gal(b1-4)GlcNAc
# Outline: as §1
# [15] = target: Neu5Ac(b2-6)Gal(b1-4)GlcNAc
# Outline: as §1
# [16] = target: Neu5Ac(b2-6)GalNAc
# Outline: as §1
# [17] = target: Neu5Ac9Ac(a2-3)Gal(b1-4)GlcNAc
# Outline: as §1
# [18] = target: Neu5Ac9Ac(a2-6)Gal(b1-4)GlcNAc
# Outline: as §1
# [19] = target: Neu5Gc(a2-3)Gal(b1-3)GlcNAc
# Outline: as §1
# [20] = target: Neu5Gc(a2-3)Gal(b1-3)[Fuc(a1-4)]GlcNAc
# Outline: as §1
# [21] = target: Neu5Gc(a2-3)Gal(b1-4)Glc
# Outline: as §1
# [22] = target: Neu5Gc(a2-3)Gal(b1-4)GlcNAc
# Outline: as §1
# [23] = target: Neu5Gc(a2-3)Gal(b1-4)GlcNAc(b1-3)Gal(b1-4)GlcNAc(b1-2)Man(a1-3)[Neu5Gc(a2-3)Gal(b1-4)GlcNAc(b1-3)Gal(b1-4)GlcNAc(b1-2)Man(a1-6)]Man(b1-4)GlcNAc(b1-4)GlcNAc
# Outline: as §1
# [24] = target: Neu5Gc(a2-3)Gal(b1-4)[Fuc(a1-3)]GlcNAc
# Outline: as §1
# [25] = target: Neu5Gc(a2-6)Gal(b1-4)GlcNAc
# Outline: as §1
# [26] = target: Neu5Gc(a2-6)GalNAc
# Outline: as §1
# [27] = target: Neu5Gc(a2-8)Neu5Ac(a2-3)Gal(b1-4)GlcNAc
# Outline: as §1
# [28] = target: Neu5Gc(a2-8)Neu5Gc(a2-3)Gal(b1-4)GlcNAc
# Outline: as §1
# [29] = target: Neu5Gc(a2-8)Neu5Gc(a2-3)Gal(b1-4)GlcNAc(b1-3)Gal(b1-4)GlcNAc
# Outline: as §1
# [30] = target: Neu5Gc(a2-8)Neu5Gc(a2-6)Gal(b1-4)GlcNAc
# Outline: as §1
# [31] = target: Neu5Gc(b2-6)Gal(b1-4)GlcNAc
# Outline: as §1
binder,measurement,setting,value
"CD4 (Rattus norvegicus), P05540 (protein) MCRGFSFRHLLPLLLLQLSKLLVVTQGSTSITAYKSEGESAEFSFPLNLGEESLQGELRWKAEKAPSSQSWITFSLKNQKVSVQKSTSNPKFQLSETLPLTLQIPQVSLQFAGSGNLTLTLDRGILYQEVNLVVMKVTQPDSNTLTCEVMGPTSPKMRLILKQENQEARVSRQEKVIQVQAPEAGVWQCLLSEGEEVKMDSKIQVLSKGLNSGGGSGGGTGGGDLAPQMLRELQETNAALQDVRELLRQQVKEITFLKNTVMECDACGLDRNLPPLAPLGPHPETLVKVKDAEDQLGARVGYIELDLNSGKILESFRPEERFPMMSTFKVLLCGAVLSRIDAGQEQLGRRIHYSQNDLVEYSPVTEKHLTDGMTVRELCSAAITMSDNTAANLLLTTIGGPKELTAFLHNMGDHVTRLDRWEPELNEAIPNDERDTTMPVAMATTLRKLLTGELLTLASRQQLIDWMEADKVAGPLLRSALPAGWFIADKSGAGERGSRGIIAALGPDGKPSRIVVIYTTGSQATMDERNRQIAEIGASLIKHW",glycan array binding signal (z-score),[1],0.713
same,glycan array binding signal (z-score),[2],-0.643
same,glycan array binding signal (z-score),[3],-0.553
same,glycan array binding signal (z-score),[4],-0.666
same,glycan array binding signal (z-score),[5],-0.183
same,glycan array binding signal (z-score),[6],0.265
same,glycan array binding signal (z-score),[7],-0.287
same,glycan array binding signal (z-score),[8],-0.886
same,glycan array binding signal (z-score),[9],-0.62
same,glycan array binding signal (z-score),[10],0.827
same,glycan array binding signal (z-score),[11],0.105
same,glycan array binding signal (z-score),[12],0.35
same,glycan array binding signal (z-score),[13],-0.75
same,glycan array binding signal (z-score),[14],0.424
same,glycan array binding signal (z-score),[15],-0.404
same,glycan array binding signal (z-score),[16],-0.358
same,glycan array binding signal (z-score),[17],-0.078
same,glycan array binding signal (z-score),[18],0.028
same,glycan array binding signal (z-score),[19],0.459
same,glycan array binding signal (z-score),[20],-0.454
same,glycan array binding signal (z-score),[21],-0.927
same,glycan array binding signal (z-score),[22],0.631
same,glycan array binding signal (z-score),[23],0.987
same,glycan array binding signal (z-score),[24],0.189
same,glycan array binding signal (z-score),[25],-0.014
same,glycan array binding signal (z-score),[26],-0.385
same,glycan array binding signal (z-score),[27],-0.129
same,glycan array binding signal (z-score),[28],0.026
same,glycan array binding signal (z-score),[29],-0.56
same,glycan array binding signal (z-score),[30],-0.341
same,glycan array binding signal (z-score),[31],-0.128

# 2 entries from above, set out differently:
binder | measurement | setting | value
CD4 (Rattus norvegicus), P05540 (protein) MCRGFSFRHLLPLLLLQLSKLLVVTQGSTSITAYKSEGESAEFSFPLNLGEESLQGELRWKAEKAPSSQSWITFSLKNQKVSVQKSTSNPKFQLSETLPLTLQIPQVSLQFAGSGNLTLTLDRGILYQEVNLVVMKVTQPDSNTLTCEVMGPTSPKMRLILKQENQEARVSRQEKVIQVQAPEAGVWQCLLSEGEEVKMDSKIQVLSKGLNSGGGSGGGTGGGDLAPQMLRELQETNAALQDVRELLRQQVKEITFLKNTVMECDACGLDRNLPPLAPLGPHPETLVKVKDAEDQLGARVGYIELDLNSGKILESFRPEERFPMMSTFKVLLCGAVLSRIDAGQEQLGRRIHYSQNDLVEYSPVTEKHLTDGMTVRELCSAAITMSDNTAANLLLTTIGGPKELTAFLHNMGDHVTRLDRWEPELNEAIPNDERDTTMPVAMATTLRKLLTGELLTLASRQQLIDWMEADKVAGPLLRSALPAGWFIADKSGAGERGSRGIIAALGPDGKPSRIVVIYTTGSQATMDERNRQIAEIGASLIKHW | glycan array binding signal (z-score) | [22] | 0.631
same | glycan array binding signal (z-score) | [23] | 0.987
